Data published in article PMC4679366 (European journal of medicinal chemistry, 2014).

How the values were obtained:
P. falciparum = conditions: read-out: P. falciparum IC50; cited from earlier work
HepG2 liver cells = test: HepG2 toxicity assay; format: cell-based; conditions: Homo sapiens, HepG2, read-out: HepG2 IC50

## O=C(CCCCCCC(=O)Nc1ccccc1)NO [SAHA, suberoylanilide hydroxamic acid]
P. falciparum
  IC50: 109 to 309 nM
HepG2 liver cells
  IC50: 1490 nM
